Reference: PubChem BioAssay AID192 (DTP/NCI, 2004)
The list shows only some results of the screen, not a fair sample: it is rich in T/C values a quarter to a half above the control, in often repeated tests (any T/C) and in doses without a T/C. Other doses and runs of a compound stand elsewhere. T/C gives the treated animals as a percentage of the vehicle group. Some entries give survivors of the animals treated and no T/C: the source holds a T/C of zero for them, seemingly a mark for toxic or unscored doses. Some survivor counts are full or nearly so, which does not show that the dose was tolerated: the source hardly ever lists a survival T/C far under the control, and the zero likely stands for such cases as well. Survivors were counted at the toxicity check, usually on the fifth day, unless a day is given; later deaths do not show. Schedules are NCI's codes, taken here to give the interval after Q, in days (D) or hours (H), and the number of doses after X. Some entries hold several experiments; the values are given in rising order. Counts like (3×) give the number of equal values in this list. Where survival is the endpoint, this PubChem deposit counts one and a half times the control or more as active, and values a quarter to a half above the control carry no call in these data; other NCI protocols may use other cut-offs. Some T/C values are followed by the survivors on the day toxicity was checked, most often the fifth; where none is given, no animal had died by that day.

Tested on: BDF1 mice, B16 melanoma ip, median survival T/C
Test: NCI In Vivo Anticancer Drug Screen. Data for tumor model B16 Melanoma (intraperitoneal) in B6D2F1 (BDF1) mice
Conditions: T/C endpoint: median survival time, higher T/C = longer survival
Experimental: The antitumor activity of compounds was measured in mice bearing transplantable tumors. Survival or tumor size were measured and the results are expressed as the measurement made in the treated group (T) divided by the measurement made in the vehicle treated control group (C). The tumor model used in this assay is B16 Melanoma (intraperitoneal) in B6D2F1 (BDF1) mice

[1] = dose: 50.0 mg/kg/injection, schedule: Q01DX009 (ip), vehicle: saline
[2] = dose: 12.5 mg/kg/injection, schedule: Q01DX009 (ip), vehicle: Klucel (hydroxypropylcellulose) (HPC)
[3] = dose: 50.0 mg/kg/injection, schedule: Q01DX009 (ip), vehicle: Klucel (hydroxypropylcellulose) (HPC)
[4] = dose: 100.0 mg/kg/injection, schedule: Q01DX009 (ip), vehicle: Klucel (hydroxypropylcellulose) (HPC)
[5] = dose: 200.0 mg/kg/injection, schedule: Q01DX009 (ip), vehicle: Klucel (hydroxypropylcellulose) (HPC)
[6] = dose: 50.0 mg/kg/injection, schedule: Q01DX009 (ip), vehicle: saline with Tween-80
[7] = dose: 100.0 mg/kg/injection, schedule: Q01DX009 (ip), vehicle: saline with Tween-80
[8] = dose: 400.0 mg/kg/injection, schedule: Q04DX003 (ip), vehicle: Klucel (hydroxypropylcellulose) (HPC)
[9] = dose: 25.0 mg/kg/injection, schedule: Q01DX009 (ip), vehicle: saline with Tween-80
[10] = dose: 200.0 mg/kg/injection, schedule: Q01DX009 (ip), vehicle: saline with Tween-80

## N#CNN=Nc1cc(Cl)c(Cl)c(Cl)c1
[1]
  survivor count: 7 of 10

## O=S(=O)([O-])NC1CCCCC1.O=S(=O)([O-])NC1CCCCC1.[Hg+2].[Hg+2].[Hg+2].[O-2].[O-2]
dose: 2.0 mg/kg/injection, schedule: Q01DX009 (ip), vehicle: saline
  survivor count: 7 of 10 and 10 of 10
dose: 4.0 mg/kg/injection, schedule: Q01DX009 (ip), vehicle: saline
  survivor count: 3 of 10
dose: 8.0 mg/kg/injection, schedule: Q01DX009 (ip), vehicle: saline
  survivor count: 2 of 10
dose: 16.0 mg/kg/injection, schedule: Q01DX009 (ip), vehicle: saline
  survivor count: 0 of 10

## O=C1NC(c2ccccc2)(c2ccccc2)C(=O)N1CCN(CCCl)CCCl
[2]
  T/C: 139 % of control
  survivor count: 10 of 10
dose: 25.0 mg/kg/injection, schedule: Q01DX009 (ip), vehicle: Klucel (hydroxypropylcellulose) (HPC)
  T/C: 135 % of control [9 of 10 alive]
[3]
  survivor count: 3 of 6
[4]
  survivor count: 0 of 10 and 1 of 6
[5]
  survivor count: 3 of 6

## O=[N+]([O-])c1cc(Cl)cc2c1nc(NCCO)c1ccccc12
[6]
  survivor count: 6 of 6
[7]
  survivor count: 6 of 6

## ClC1CCC[N-]C1.ClC1CCC[N-]C1.[Cl][Pt+2]([Cl])([Cl])[Cl] (stereo not given)
dose: 12.5 mg/kg/injection, schedule: Q01DX009 (ip), vehicle: saline with Tween-80
  T/C: 130 % of control

## c1ccc([P+](c2ccccc2)(c2ccccc2)c2ccccc2)cc1
dose: 10.0 mg/kg/injection, schedule: Q01DX009 (ip), vehicle: saline with Tween-80
  survivor count: 10 of 10
dose: 10.0 mg/kg/injection, schedule: Q04DX003 (ip), vehicle: saline
  survivor count: 10 of 10

## O=c1[nH]cc(N(CCCl)CCCl)c(=O)[nH]1
dose: 0.23 mg/kg/injection, schedule: Q01DX009 (ip), vehicle: saline with Tween-80
  T/C: 130 % of control
dose: 0.38 mg/kg/injection, schedule: Q01DX009 (ip), vehicle: saline
  T/C: 135 % of control
dose: 0.39 mg/kg/injection, schedule: Q01DX009 (ip), vehicle: saline with Tween-80
  T/C: 145 % of control
dose: 0.75 mg/kg/injection, schedule: Q01DX009 (ip), vehicle: saline
  T/C: 127 % of control
dose: 1.8 mg/kg/injection, schedule: Q01DX009 (ip), vehicle: saline with Tween-80
  survivor count: 10 of 10
dose: 3.0 mg/kg/injection, schedule: Q01DX009 (ip), vehicle: saline with Tween-80
  survivor count: 10 of 10

## O=c1sc(N=Nc2ccccc2)nn1-c1ccccc1
[8]
  survivor count: 6 of 10

## CCc1cc2c(cc1C(=O)CBr)C(C)(C)CCC2(C)C
[6]
  survivor count: 10 of 10
[7]
  survivor count: 7 of 10

## O=C(CBr)c1ccc(-c2ccccc2)cc1
dose: 50.0 mg/kg/injection, schedule: Q04DX003 (ip), vehicle: Klucel (hydroxypropylcellulose) (HPC)
  survivor count: 9 of 10
[4]
  survivor count: 7 of 10
dose: 100.0 mg/kg/injection, schedule: Q04DX003 (ip), vehicle: Klucel (hydroxypropylcellulose) (HPC)
  survivor count: 9 of 10
[5]
  survivor count: 1 of 10
dose: 200.0 mg/kg/injection, schedule: Q04DX003 (ip), vehicle: Klucel (hydroxypropylcellulose) (HPC)
  survivor count: 4 of 10

## OCCN1CCCN(CCCN2c3ccccc3Sc3ccc(C(F)(F)F)cc32)CC1
dose: 1.17 mg/kg/injection, schedule: Q04DX003 (ip), vehicle: saline
  T/C: 127 % of control
dose: 9.37 mg/kg/injection, schedule: Q01DX009 (ip), vehicle: saline
  survivor count: 10 of 10
dose: 18.75 mg/kg/injection, schedule: Q04DX003 (ip), vehicle: saline
  survivor count: 3 of 10

## CC1(c2ccc(Cl)cc2)OC(=O)C(=Cc2ccc([N+](=O)[O-])s2)C(=O)O1 (stereo not given)
[9]
  survivor count: 10 of 10
[6]
  survivor count: 10 of 10
[7]
  survivor count: 9 of 10
[10]
  survivor count: 2 of 10

## C#CCC1(OC(N)=O)CCCCC1
dose: 200.0 mg/kg/injection, schedule: Q01DX009 (ip), vehicle: saline
  survivor count: 9 of 10
[8]
  survivor count: 10 of 10

## CCNCCCCCCNCC
[1]
  survivor count: 10 of 10

## CN(C)CCOc1ccc2c(c1)C/C(=C/c1ncc([N+](=O)[O-])n1C)C2=O
[10]
  survivor count: 10 of 10

## COc1cc(O)c2c(c1)C(=O)c1cc3c(c(O)c1C2=O)C(O)C(OC)C(C)(O)C3=O (stereo not given)
dose: 50.0 mg/kg/injection, schedule: Q01DX009 (ip), vehicle: other
  survivor count: 6 of 6
[4]
  survivor count: 10 of 10
dose: 100.0 mg/kg/injection, schedule: Q01DX009 (ip), vehicle: other
  survivor count: 6 of 6
dose: 200.0 mg/kg/injection, schedule: Q01DX009 (ip), vehicle: other
  survivor count: 6 of 6
dose: 400.0 mg/kg/injection, schedule: Q01DX009 (ip), vehicle: other
  survivor count: 6 of 6

## O=C1/C(=N/O)CCc2ccccc21
[5]
  survivor count: 7 of 10

## C[C@H]1[C@H](O)[C@H]2[C@@H](CCC3=CC(=O)CC[C@@]32C)[C@@H]2CC[C@H](O)[C@@]12C
dose: 400.0 mg/kg/injection, schedule: Q01DX009 (ip), vehicle: saline with Tween-80
  survivor count: 6 of 6

## O=C/C=C/c1ccc([N+](=O)[O-])cc1
[6]
  survivor count: 6 of 6
[7]
  survivor count: 4 of 6

## CCOC(=O)Nc1ccccc1
dose: 400.0 mg/kg/injection, schedule: Q04DX003 (ip), vehicle: gum acacia
  survivor count: 10 of 10

## COc1cccc2c1C(=O)c1c(O)c3c(c(O)c1C2=O)C[C@@](O)(C(=O)CO)C[C@@H]3OC1CC(NCc2ccccc2)C(O)C(C)O1 (stereo not given in full)
dose: 3.75 mg/kg/injection, schedule: Q01DX001 (ip), vehicle: water
  T/C: 125 % of control
dose: 7.5 mg/kg/injection, schedule: Q01DX001 (ip), vehicle: water
  T/C: 130 % of control
dose: 60.0 mg/kg/injection, schedule: Q01DX001 (ip), vehicle: water
  survivor count: 1 of 10 and 8 of 10
dose: 120.0 mg/kg/injection, schedule: Q01DX001 (ip), vehicle: water
  survivor count: 0 of 10
dose: 240.0 mg/kg/injection, schedule: Q01DX001 (ip), vehicle: water
  survivor count: 0 of 10

## O=C(CCl)N1CCC2(CC1)SSC1(CCN(C(=O)CCl)CC1)S2
[6]
  survivor count: 10 of 10

## COc1cc(C(=O)O)c2c(c1C)OC(=O)c1c(C)cc(O)c(C=O)c1O2
dose: 12.5 mg/kg/injection, schedule: Q04DX003 (ip), vehicle: saline with Tween-80
  T/C: 126 % of control [9 of 10 alive]
dose: 16.5 mg/kg/injection, schedule: Q01DX009 (ip), vehicle: saline with Tween-80
  T/C: 128 % of control
[9]
  T/C: 134 % of control
dose: 37.5 mg/kg/injection, schedule: Q01DX009 (ip), vehicle: saline with Tween-80
  T/C: 128 % of control
[3]
  survivor count: 9 of 10
[6]
  survivor count: 4 of 10
[7]
  survivor count: 4 of 10
dose: 100.0 mg/kg/injection, schedule: Q04DX003 (ip), vehicle: saline with Tween-80
  survivor count: 1 of 10
dose: 200.0 mg/kg/injection, schedule: Q04DX003 (ip), vehicle: saline with Tween-80
  survivor count: 0 of 10
dose: 400.0 mg/kg/injection, schedule: Q04DX003 (ip), vehicle: saline with Tween-80
  survivor count: 0 of 10

## CCCCCCCCCCCCCCCCCC(=O)NNCCO
[7]
  survivor count: 9 of 10
[10]
  survivor count: 1 of 10

## O=C1C(N2CCCCC2)=C(N2CC2)C(=O)C(N2CCCCC2)=C1N1CC1
dose: 5.0 mg/kg/injection, schedule: Q01DX009 (ip), vehicle: saline
  survivor count: 9 of 10
dose: 10.0 mg/kg/injection, schedule: Q01DX009 (ip), vehicle: saline
  survivor count: 10 of 10
dose: 20.0 mg/kg/injection, schedule: Q01DX009 (ip), vehicle: saline
  survivor count: 6 of 10 and 9 of 10

## O=[N+]([O-])c1ccc(Sc2ccncn2)c([N+](=O)[O-])c1
[7]
  survivor count: 6 of 10
[10]
  survivor count: 0 of 10 (2×)

## C[Si]1(C)CCCSC1
[7]
  survivor count: 10 of 10
